In one data set the test system is NF-kappaB. The experiment in a line: competition with a labelled probe. The note with it: PS at 3 linkages from 3' end, both strands; 10x molar excess, TransAM; protein in an extract; variant of decoy 895/896.
The target of data set [1] is T1, Oct-1 (Homo sapiens) (UniProt P14859).
T1 sequence (looked up, limits assumed): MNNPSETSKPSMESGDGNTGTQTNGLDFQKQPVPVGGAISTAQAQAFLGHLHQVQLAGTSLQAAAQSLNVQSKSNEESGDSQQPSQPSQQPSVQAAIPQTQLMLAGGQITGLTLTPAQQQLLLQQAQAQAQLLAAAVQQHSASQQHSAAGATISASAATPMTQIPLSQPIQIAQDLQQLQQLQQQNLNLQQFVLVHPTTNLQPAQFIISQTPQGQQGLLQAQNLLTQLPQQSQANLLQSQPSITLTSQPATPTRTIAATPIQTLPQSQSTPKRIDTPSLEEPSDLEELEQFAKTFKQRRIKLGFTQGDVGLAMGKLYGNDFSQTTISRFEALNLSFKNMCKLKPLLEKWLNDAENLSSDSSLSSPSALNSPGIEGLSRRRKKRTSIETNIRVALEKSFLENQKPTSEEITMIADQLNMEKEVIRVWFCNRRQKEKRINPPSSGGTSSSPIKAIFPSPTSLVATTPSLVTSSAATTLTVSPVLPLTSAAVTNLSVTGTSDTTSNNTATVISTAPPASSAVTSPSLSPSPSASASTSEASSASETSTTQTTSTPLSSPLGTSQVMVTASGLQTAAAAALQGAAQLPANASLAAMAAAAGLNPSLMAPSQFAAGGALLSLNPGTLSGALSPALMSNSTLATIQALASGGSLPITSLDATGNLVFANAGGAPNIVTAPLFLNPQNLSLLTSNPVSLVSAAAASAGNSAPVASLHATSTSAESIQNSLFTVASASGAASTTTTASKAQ
The experiment in a line: competition with a labelled probe. The note with it: PS at 3 linkages from 3' end, both strands; decoy does not inhibit Oct-1 probe binding; protein in an extract; variant of decoy 895/896.

Amino acid sequences for entries named in this document (tags omitted). Residues count along the entry.
UniProt P08047, 2-785: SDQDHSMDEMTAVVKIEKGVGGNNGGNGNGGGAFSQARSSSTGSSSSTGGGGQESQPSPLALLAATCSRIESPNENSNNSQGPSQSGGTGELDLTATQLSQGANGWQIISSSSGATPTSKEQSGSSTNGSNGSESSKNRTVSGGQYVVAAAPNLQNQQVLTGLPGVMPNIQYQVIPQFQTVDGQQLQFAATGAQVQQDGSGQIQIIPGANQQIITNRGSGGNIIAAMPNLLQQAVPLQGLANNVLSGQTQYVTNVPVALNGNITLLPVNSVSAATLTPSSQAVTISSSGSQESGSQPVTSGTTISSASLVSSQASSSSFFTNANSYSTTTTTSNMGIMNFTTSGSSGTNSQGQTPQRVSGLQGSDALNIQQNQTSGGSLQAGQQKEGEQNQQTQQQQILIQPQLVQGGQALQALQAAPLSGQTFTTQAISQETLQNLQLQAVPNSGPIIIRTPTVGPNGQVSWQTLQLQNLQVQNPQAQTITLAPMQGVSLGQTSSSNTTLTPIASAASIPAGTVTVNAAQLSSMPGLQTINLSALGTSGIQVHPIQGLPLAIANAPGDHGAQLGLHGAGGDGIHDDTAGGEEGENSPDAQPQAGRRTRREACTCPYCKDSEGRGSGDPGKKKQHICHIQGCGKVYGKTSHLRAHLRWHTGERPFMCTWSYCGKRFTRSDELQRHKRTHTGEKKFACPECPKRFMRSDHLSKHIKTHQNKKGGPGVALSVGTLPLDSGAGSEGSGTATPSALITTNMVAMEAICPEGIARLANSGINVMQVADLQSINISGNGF

A further data set deals with SP-1 (UniProt P08047). Description: competition with a labelled probe. The settings on record: PS at 3 linkages from 3' end, both strands; 10x molar excess, TransAM; protein in an extract; variant of decoy 895/896.
Data set [2] relates to HIF-1 (HIF-1alpha/HIF-1beta (ARNT) heterodimer). The experiment in a line: EMSA. The settings on record: protein in an extract, label: 32P 5' end.
For data set [3], the target named is T1, Oct-1 (Homo sapiens). The experiment in a line: EMSA. The settings on record: MiaPaCa extract; protein in an extract; label: 32P 5' end. A general note: Mobility shift assays separate free from complexed probe on a gel.

At least one result comes from cells or an extract, where the contact may be indirect. For some of these results: Negatives hold for the conditions tested. For some of these results: Protein sequences can lack the tags named with them. For some of these results: The exact form of at least one protein or probe is not confirmed.

“CACCAGCGTACGTGCCTCAGG (double strand) [895/896 H3/H3]”: the binding result in the data set with NF-kappaB, in the data set with Oct-1 (Homo sapiens) [1] and in the data set with SP-1 was “no binding” throughout.

For the sequence “CACCAGCGTACGTGCCTCAGG (double strand) [HIF decoy probe]”, the binding result in data set [2] (hypoxic MiaPaCa extract, supershift by HIF-1alpha and HIF-1beta antibodies) is “binds”.

With “CGCGAGCGTACGTGCCTCAGG (double strand) [transferrin receptor HIF site probe]”, the binding result in data set [2] is “binds”.

“GCCCTACGTGCTGTCTCA (double strand) [EPO promoter HIF site probe]”: the binding result in data set [2] is “binds”.

Consider “TGTCGAATGCAAATCACTAGAA (double strand) [Oct-1 site probe]”, for which the binding result with Oct-1 (Homo sapiens) [3] is on record as “binds”.
